Experimental data from the supplement of paper PMC10849652.
The other results are listed elsewhere or left out.

Sequences of proteins named here, by UniProt entry; tags and fusion partners are left off. A change or cut given only in a name is not applied to a line headed by its entry.
UniProt Q9NXH8: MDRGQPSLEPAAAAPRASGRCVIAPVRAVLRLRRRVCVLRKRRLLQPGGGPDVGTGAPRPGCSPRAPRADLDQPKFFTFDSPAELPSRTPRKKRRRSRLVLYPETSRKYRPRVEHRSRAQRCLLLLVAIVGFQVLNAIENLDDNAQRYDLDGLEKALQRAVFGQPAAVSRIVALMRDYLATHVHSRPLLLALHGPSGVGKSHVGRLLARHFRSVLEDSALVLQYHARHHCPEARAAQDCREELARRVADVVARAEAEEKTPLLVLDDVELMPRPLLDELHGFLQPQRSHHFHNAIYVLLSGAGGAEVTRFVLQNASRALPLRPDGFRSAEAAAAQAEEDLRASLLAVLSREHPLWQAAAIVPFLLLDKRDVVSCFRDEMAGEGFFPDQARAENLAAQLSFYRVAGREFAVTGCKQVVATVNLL
UniProt Q8IUR0, whole entry, looked up: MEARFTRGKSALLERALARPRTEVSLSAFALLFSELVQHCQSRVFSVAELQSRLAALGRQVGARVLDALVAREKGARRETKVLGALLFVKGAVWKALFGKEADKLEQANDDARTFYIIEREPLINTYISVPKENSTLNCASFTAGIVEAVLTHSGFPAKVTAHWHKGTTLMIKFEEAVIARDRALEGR
UniProt O60704: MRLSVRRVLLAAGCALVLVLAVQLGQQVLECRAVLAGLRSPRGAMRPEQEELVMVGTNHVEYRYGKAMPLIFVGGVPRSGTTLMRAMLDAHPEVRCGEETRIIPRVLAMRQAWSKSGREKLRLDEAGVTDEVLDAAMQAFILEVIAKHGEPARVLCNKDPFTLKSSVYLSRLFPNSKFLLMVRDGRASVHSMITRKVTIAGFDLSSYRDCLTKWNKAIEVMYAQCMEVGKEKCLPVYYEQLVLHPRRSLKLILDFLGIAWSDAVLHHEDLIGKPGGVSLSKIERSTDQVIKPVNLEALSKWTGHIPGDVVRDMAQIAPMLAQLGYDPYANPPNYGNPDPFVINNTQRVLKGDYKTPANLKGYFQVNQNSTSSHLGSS
UniProt Q9NUP7: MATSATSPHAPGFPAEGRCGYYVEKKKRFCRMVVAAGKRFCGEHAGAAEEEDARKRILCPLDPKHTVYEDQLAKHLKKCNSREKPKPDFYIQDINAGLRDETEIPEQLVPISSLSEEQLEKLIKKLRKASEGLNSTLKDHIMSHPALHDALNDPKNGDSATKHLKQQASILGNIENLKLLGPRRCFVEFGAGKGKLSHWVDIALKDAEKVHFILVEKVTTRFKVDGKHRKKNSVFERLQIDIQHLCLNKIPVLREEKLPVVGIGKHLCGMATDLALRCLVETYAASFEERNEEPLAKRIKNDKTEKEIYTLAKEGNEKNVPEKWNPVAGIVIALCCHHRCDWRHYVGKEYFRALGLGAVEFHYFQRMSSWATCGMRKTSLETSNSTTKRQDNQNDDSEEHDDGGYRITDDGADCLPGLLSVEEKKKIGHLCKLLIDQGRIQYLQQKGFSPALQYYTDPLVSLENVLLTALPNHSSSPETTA
UniProt P20333, whole entry, looked up: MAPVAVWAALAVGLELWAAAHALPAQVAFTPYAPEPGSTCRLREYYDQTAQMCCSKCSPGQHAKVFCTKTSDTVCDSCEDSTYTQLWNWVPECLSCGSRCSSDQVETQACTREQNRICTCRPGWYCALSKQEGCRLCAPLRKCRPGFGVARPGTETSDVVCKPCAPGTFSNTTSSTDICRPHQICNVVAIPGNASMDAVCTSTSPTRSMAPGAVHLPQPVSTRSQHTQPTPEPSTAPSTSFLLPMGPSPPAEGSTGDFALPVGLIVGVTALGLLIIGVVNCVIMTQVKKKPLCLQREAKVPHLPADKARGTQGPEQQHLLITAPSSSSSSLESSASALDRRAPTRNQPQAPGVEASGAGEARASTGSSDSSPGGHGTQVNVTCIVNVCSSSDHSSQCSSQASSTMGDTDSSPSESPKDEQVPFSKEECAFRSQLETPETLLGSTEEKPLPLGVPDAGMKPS
UniProt Q9Y3Q8: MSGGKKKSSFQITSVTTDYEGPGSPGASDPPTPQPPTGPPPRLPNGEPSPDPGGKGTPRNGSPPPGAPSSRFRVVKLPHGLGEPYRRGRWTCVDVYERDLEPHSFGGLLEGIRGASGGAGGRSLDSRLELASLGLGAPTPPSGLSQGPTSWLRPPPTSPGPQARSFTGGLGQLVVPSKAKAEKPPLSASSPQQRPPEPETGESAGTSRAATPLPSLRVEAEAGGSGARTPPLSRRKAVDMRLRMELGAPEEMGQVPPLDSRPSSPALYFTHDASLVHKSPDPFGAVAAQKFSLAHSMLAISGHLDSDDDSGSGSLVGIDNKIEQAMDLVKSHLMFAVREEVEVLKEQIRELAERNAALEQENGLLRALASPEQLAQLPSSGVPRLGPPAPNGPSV
UniProt Q8WW01: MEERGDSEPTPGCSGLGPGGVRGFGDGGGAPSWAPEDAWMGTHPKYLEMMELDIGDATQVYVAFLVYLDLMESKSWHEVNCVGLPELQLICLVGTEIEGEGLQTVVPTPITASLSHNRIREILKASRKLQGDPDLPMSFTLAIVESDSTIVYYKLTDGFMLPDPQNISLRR
UniProt Q14258, whole entry, looked up: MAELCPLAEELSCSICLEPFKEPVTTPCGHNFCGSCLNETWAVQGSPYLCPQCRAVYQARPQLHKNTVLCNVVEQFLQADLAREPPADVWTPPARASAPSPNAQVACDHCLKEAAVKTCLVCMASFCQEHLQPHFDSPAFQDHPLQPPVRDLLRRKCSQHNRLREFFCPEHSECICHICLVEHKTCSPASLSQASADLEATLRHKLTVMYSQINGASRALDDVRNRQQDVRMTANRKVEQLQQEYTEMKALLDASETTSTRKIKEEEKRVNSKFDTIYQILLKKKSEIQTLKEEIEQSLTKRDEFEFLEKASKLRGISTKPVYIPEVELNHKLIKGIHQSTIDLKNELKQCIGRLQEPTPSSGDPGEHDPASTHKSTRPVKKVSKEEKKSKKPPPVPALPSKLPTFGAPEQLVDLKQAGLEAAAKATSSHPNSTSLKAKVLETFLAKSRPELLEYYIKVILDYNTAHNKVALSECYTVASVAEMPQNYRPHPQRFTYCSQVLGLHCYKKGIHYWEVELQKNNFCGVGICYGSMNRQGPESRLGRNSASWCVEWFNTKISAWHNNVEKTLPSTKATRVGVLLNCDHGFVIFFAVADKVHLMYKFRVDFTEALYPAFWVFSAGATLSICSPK
UniProt Q8WVT3: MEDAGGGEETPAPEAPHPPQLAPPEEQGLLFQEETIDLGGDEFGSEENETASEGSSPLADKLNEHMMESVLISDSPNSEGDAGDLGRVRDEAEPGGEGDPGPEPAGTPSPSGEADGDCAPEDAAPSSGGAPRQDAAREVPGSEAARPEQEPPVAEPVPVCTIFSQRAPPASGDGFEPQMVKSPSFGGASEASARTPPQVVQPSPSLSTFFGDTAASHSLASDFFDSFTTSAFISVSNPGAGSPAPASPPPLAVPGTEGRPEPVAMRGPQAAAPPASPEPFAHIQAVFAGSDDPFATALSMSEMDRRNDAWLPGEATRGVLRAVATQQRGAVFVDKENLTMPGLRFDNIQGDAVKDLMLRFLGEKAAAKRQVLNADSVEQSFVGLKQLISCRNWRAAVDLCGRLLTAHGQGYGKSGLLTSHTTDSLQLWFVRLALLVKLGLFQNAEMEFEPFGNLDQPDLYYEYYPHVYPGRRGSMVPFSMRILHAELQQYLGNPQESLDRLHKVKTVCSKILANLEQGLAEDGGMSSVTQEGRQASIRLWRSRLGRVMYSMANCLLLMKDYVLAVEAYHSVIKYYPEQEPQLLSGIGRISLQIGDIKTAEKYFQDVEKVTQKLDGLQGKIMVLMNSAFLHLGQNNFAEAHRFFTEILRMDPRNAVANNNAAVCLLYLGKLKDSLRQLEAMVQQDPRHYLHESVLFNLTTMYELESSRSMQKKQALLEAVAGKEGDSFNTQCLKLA
UniProt Q15650: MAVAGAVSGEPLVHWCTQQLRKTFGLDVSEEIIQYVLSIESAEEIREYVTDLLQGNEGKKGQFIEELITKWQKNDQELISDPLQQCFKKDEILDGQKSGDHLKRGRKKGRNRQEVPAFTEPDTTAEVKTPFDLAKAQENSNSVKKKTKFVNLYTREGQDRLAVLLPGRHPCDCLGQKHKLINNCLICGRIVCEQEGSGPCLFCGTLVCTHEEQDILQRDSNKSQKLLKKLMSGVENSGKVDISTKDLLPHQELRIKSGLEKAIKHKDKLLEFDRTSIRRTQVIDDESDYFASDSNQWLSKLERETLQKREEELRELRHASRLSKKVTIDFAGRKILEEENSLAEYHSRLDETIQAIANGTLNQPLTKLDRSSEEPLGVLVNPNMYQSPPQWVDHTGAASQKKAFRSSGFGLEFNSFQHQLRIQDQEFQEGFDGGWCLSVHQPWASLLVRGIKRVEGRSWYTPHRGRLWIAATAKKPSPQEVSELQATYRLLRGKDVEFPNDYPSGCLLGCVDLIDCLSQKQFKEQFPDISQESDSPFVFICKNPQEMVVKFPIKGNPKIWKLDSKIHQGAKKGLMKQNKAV
UniProt O14656: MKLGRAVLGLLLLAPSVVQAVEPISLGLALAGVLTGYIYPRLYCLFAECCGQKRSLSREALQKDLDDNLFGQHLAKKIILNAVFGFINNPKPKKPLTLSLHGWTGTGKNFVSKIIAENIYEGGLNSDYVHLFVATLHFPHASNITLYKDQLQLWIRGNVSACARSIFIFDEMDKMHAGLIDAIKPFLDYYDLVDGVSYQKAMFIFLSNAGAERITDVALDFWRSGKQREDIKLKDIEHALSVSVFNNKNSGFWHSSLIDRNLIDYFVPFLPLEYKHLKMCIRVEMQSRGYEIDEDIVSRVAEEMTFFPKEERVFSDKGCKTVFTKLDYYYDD
UniProt Q9BQ61: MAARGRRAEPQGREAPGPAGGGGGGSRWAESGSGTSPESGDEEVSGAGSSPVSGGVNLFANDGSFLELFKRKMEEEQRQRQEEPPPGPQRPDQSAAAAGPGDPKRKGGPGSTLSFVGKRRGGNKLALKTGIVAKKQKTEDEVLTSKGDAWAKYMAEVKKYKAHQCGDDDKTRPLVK
UniProt Q02880: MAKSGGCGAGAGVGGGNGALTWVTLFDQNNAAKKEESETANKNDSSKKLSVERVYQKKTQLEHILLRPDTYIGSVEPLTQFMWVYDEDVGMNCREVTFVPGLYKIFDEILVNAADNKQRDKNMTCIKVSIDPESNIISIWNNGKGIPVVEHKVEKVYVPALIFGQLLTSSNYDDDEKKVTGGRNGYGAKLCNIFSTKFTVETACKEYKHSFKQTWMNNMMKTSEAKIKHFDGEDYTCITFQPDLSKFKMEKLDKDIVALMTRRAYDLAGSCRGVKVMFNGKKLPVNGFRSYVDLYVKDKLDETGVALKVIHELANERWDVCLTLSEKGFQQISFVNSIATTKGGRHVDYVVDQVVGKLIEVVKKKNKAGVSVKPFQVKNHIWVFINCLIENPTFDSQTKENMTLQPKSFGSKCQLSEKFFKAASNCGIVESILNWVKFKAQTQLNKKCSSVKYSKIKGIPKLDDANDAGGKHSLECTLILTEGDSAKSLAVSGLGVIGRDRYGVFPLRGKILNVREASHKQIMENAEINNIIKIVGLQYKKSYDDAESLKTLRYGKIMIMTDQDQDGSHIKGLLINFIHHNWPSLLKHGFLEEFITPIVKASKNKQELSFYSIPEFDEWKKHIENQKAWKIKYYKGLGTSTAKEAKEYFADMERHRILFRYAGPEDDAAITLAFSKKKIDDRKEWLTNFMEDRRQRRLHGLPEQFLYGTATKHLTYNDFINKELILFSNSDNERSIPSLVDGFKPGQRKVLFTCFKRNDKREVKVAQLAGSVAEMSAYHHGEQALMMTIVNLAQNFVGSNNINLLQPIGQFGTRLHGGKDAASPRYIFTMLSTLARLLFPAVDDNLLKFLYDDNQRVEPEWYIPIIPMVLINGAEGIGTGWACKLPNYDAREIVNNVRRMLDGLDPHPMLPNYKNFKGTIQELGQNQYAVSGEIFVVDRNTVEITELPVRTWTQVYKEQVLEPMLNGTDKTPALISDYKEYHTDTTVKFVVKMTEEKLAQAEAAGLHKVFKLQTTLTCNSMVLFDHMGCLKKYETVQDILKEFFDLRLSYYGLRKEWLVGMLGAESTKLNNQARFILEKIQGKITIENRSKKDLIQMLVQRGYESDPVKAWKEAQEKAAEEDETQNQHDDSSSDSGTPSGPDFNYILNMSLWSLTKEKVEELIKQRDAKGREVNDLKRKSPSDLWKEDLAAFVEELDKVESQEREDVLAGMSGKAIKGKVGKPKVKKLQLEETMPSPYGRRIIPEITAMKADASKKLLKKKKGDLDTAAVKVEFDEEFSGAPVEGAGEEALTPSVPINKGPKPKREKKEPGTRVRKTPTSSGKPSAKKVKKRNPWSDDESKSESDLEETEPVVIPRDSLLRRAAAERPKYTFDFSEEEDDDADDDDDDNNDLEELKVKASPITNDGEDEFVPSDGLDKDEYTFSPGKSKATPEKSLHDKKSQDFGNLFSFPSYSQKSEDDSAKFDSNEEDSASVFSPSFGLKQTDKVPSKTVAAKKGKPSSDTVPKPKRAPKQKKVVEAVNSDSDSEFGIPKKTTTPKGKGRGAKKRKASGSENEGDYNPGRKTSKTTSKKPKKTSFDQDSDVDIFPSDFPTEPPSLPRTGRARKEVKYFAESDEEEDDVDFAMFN

What follows are targets tested with C1CN(CCC1(CC2=CC=C(C=C2)Cl)N)C3=NC=NC4=C3C=CN4 (assay: log2 fold change, soluble protein after heating vs DMSO (PISA); higher = thermal stabilisation; K562 cells, 10 uM, 30 min; active = over 0.2 and 3.5 SD of the protein, either way, in both replicates (recomputed)).
Summary of the method: (§1)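 Soluble protein was defined as the supernatant after 21,000xg for 90 min. It came from K562 cells at 2×10^6 cells/mL given 10 μM compound for 30 min, heated in aliquots for 3 min across 48°C-58°C, pooled, and extracted in PBS with 0.5% NP-40 at 4°C, and was quantified by TMTpro 16plex LC-MS/MS with equalised channel sums. Thermal stability against control samples, from duplicates, is reported as log2 fold change.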

log2 fold change, inactive:
TP53RK (UniProt Q96S44) -0.023
TOR4A (UniProt Q9NXH8) 0.017
TRIM56 (UniProt Q9BRZ2) -0.183
TRAPPC5 (UniProt Q8IUR0) -0.081
TPST2 (UniProt O60704) 0.049
TRMT13 (UniProt Q9NUP7) 0.045
TPP2 (UniProt P29144) 0.149
TNFRSF1B (UniProt P20333) 0.004
TSC22D4 (UniProt Q9Y3Q8) 0.003
TSC22D2 (UniProt O75157) -0.04
TSEN15 (UniProt Q8WW01) 0.057
TRMT6 (UniProt Q9UJA5) 0.018
TOMM22 (UniProt Q9NS69) -0.051
TRAPPC10 (UniProt P48553) -0.024
TRIM25 (UniProt Q14258) -0.181
TPM3 isoform 2 (UniProt P06753) 0.05
TRAPPC12 (UniProt Q8WVT3) -0.053
TRMU (UniProt O75648) 0.04
TP53BP2 isoform 3 (UniProt Q13625) -0.156
TRMT11 (UniProt Q7Z4G4) 0.01
TOR1AIP2 (UniProt Q8NFQ8) -0.011
TPM3 isoform 4 (UniProt P06753) 0.09
TRPV2 (UniProt Q9Y5S1) 0.017
TPM1 (UniProt H7BYY1) 0.048
TPCN1 isoform 3 (UniProt Q9ULQ1) 0.04
TOR2A (UniProt Q5JU69) 0.083
TRIP4 (UniProt Q15650) -0.045
TOR1AIP1 isoform 3 (UniProt Q5JTV8) 0.038
TOR1A (UniProt O14656) 0.02
TPI1 (UniProt P60174) 0.039
TRIR (UniProt Q9BQ61) 0.032
TOP2B (UniProt Q02880) -0.083

The targets below were run with C1COCCN1CCN2C3=CC=CC=C3N=C2NC(=O)C4=CC(=CC=C4)[N+](=O)[O-] [IRAK-1-4 Inhibitor I] in the same assay as above.
Summary of the method: as §1

log2 fold change, inactive:
TP53RK (UniProt Q96S44) 0.027
TOR4A (UniProt Q9NXH8) -0.02
TRIM56 (UniProt Q9BRZ2) -0.178
TRAPPC5 (UniProt Q8IUR0) -0.024
TPST2 (UniProt O60704) -0.091
TRMT13 (UniProt Q9NUP7) 0.006
TPP2 (UniProt P29144) -0.234
TNFRSF1B (UniProt P20333) 0.024
TSC22D4 (UniProt Q9Y3Q8) 0.038
TSC22D2 (UniProt O75157) 0
TSEN15 (UniProt Q8WW01) -0.084
TRMT6 (UniProt Q9UJA5) -0.047
TOMM22 (UniProt Q9NS69) 0.015
TRAPPC10 (UniProt P48553) 0.002
TRIM25 (UniProt Q14258) -0.134
TPM3 isoform 2 (UniProt P06753) 0.11
TRAPPC12 (UniProt Q8WVT3) -0.036
TRMU (UniProt O75648) 0.023
TP53BP2 isoform 3 (UniProt Q13625) -0.029
TRMT11 (UniProt Q7Z4G4) 0.011
TOR1AIP2 (UniProt Q8NFQ8) 0.006
TPM3 isoform 4 (UniProt P06753) 0.029
TRPV2 (UniProt Q9Y5S1) 0.008
TPM1 (UniProt H7BYY1) 0.087
TPCN1 isoform 3 (UniProt Q9ULQ1) 0.039
TOR2A (UniProt Q5JU69) 0.082
TRIP4 (UniProt Q15650) -0.088
TOR1AIP1 isoform 3 (UniProt Q5JTV8) 0.017
TOR1A (UniProt O14656) 0.027
TPI1 (UniProt P60174) 0.046
TRIR (UniProt Q9BQ61) -0.029
TOP2B (UniProt Q02880) -0.137

What follows are targets tested with C=CC(=O)N1CCC[C@@H](n2nc(-c3ccc(Oc4ccccc4)cc3)c3c(N)ncnc32)C1 [ibrutinib] in the same assay as above.
Summary of the method: as §1

log2 fold change, inactive:
TP53RK (UniProt Q96S44) 0.025
TOR4A (UniProt Q9NXH8) -0.014
TRIM56 (UniProt Q9BRZ2) 0.186
TRAPPC5 (UniProt Q8IUR0) 0
TPST2 (UniProt O60704) -0.016
TRMT13 (UniProt Q9NUP7) -0.042
TPP2 (UniProt P29144) -0.097
TNFRSF1B (UniProt P20333) -0.012
TSC22D4 (UniProt Q9Y3Q8) 0.026
TSC22D2 (UniProt O75157) 0.007
TSEN15 (UniProt Q8WW01) -0.005
TRMT6 (UniProt Q9UJA5) 0.025
TOMM22 (UniProt Q9NS69) -0.011
TRAPPC10 (UniProt P48553) 0.014
TRIM25 (UniProt Q14258) -0.034
TPM3 isoform 2 (UniProt P06753) -0.007
TRAPPC12 (UniProt Q8WVT3) -0.024
TRMU (UniProt O75648) 0.004
TP53BP2 isoform 3 (UniProt Q13625) 0.024
TRMT11 (UniProt Q7Z4G4) 0.056
TOR1AIP2 (UniProt Q8NFQ8) -0.004
TPM3 isoform 4 (UniProt P06753) 0.01
TRPV2 (UniProt Q9Y5S1) 0
TPM1 (UniProt H7BYY1) 0.021
TPCN1 isoform 3 (UniProt Q9ULQ1) 0.134
TOR2A (UniProt Q5JU69) 0.051
TRIP4 (UniProt Q15650) -0.028
TOR1AIP1 isoform 3 (UniProt Q5JTV8) 0.02
TOR1A (UniProt O14656) 0.022
TPI1 (UniProt P60174) 0.025
TRIR (UniProt Q9BQ61) 0.02
TOP2B (UniProt Q02880) 0.079
